The list shows only some results of the screen, not a fair sample: it gathers some chemical classes. Other doses and runs of a compound may be missing. T/C: endpoint of the treated group in % of that of the vehicle group. Some entries give survivors of the animals treated and no T/C: the source holds a T/C of zero for them, seemingly a mark for toxic or unscored doses. Some doses without a T/C left all or most animals alive at the check, yet need not have been tolerated: survival well below the control is almost never listed, so the zero probably covers shortened survival too. Survivors were counted at the toxicity check, usually on the fifth day, unless a day is given; later deaths do not show. Schedule codes are those of the source, taken here to give the interval after Q, in days (D) or hours (H), and the number of doses after X. Where survival is the endpoint, the PubChem record calls one and a half times the control and up active, and a quarter to a half above the control has no call in these data; cut-offs in other NCI protocols can differ. Some entries were tested several times; their values stand side by side, smallest first. Some T/C values are followed by the survivors on the day toxicity was checked, most often the fifth; without a count or a note in brackets, all were alive then.
System: L1210 leukemia ip in BDF1 mice, survival T/C
Assay: NCI In Vivo Anticancer Drug Screen. Data for tumor model L1210 Leukemia (intraperitoneal) in B6D2F1 (BDF1) mice
Conditions: T/C endpoint: mean survival time, higher T/C = longer survival
[1] = dose: 100.0 mg/kg/injection, schedule: Q04DX003 (ip), vehicle: Klucel (hydroxypropylcellulose) (HPC)
[2] = dose: 200.0 mg/kg/injection, schedule: Q04DX003 (ip), vehicle: Klucel (hydroxypropylcellulose) (HPC)
[3] = dose: 400.0 mg/kg/injection, schedule: Q04DX003 (ip), vehicle: Klucel (hydroxypropylcellulose) (HPC)
[4] = dose: 100.0 mg/kg/injection, schedule: Q01DX009 (ip), vehicle: Klucel (hydroxypropylcellulose) (HPC)
[5] = dose: 200.0 mg/kg/injection, schedule: Q01DX009 (ip), vehicle: Klucel (hydroxypropylcellulose) (HPC)
[6] = dose: 400.0 mg/kg/injection, schedule: Q01DX009 (ip), vehicle: Klucel (hydroxypropylcellulose) (HPC)

O=C1C2CCCCC1C(N1CCCC1)CC2 (centres undefined)
T/C (dose: 75.0 mg/kg/injection, schedule: Q01DX009 (ip), vehicle: Klucel (hydroxypropylcellulose) (HPC)): 101 % of control
T/C (dose: 100.0 mg/kg/injection, schedule: Q01DX001 (ip), vehicle: Klucel (hydroxypropylcellulose) (HPC)): 93 % of control
T/C (dose: 150.0 mg/kg/injection, schedule: Q01DX009 (ip), vehicle: Klucel (hydroxypropylcellulose) (HPC)): 90 % of control
T/C (dose: 200.0 mg/kg/injection, schedule: Q01DX001 (ip), vehicle: Klucel (hydroxypropylcellulose) (HPC)): 103 % of control
T/C (dose: 300.0 mg/kg/injection, schedule: Q01DX009 (ip), vehicle: Klucel (hydroxypropylcellulose) (HPC)): 98 % of control
T/C (dose: 400.0 mg/kg/injection, schedule: Q01DX001 (ip), vehicle: Klucel (hydroxypropylcellulose) (HPC)): 93 % of control

O=[N+]([O-])c1cc([N+](=O)[O-])c(OCC(O)CO)c([N+](=O)[O-])c1 (centres undefined)
T/C (dose: 25.0 mg/kg/injection, schedule: Q04DX003 (ip), vehicle: Klucel (hydroxypropylcellulose) (HPC)): 107 % of control
T/C (dose: 50.0 mg/kg/injection, schedule: Q04DX003 (ip), vehicle: Klucel (hydroxypropylcellulose) (HPC)): 107 % of control
T/C [1]: 97 and 107 % of control
survivor count [2]: 6 of 6
survivor count [3]: 6 of 6

CCCc1cc(C)cc(N=Cc2ccccc2)c1O.O=C1c2cc([N+](=O)[O-])ccc2-c2c1cc([N+](=O)[O-])cc2[N+](=O)[O-]
T/C (dose: 100.0 mg/kg/injection, schedule: Q04DX003 (ip), vehicle: saline with Tween-80): 95 % of control
T/C (dose: 200.0 mg/kg/injection, schedule: Q04DX003 (ip), vehicle: saline with Tween-80): 100 % of control [5 of 6 alive]
survivor count (dose: 400.0 mg/kg/injection, schedule: Q04DX003 (ip), vehicle: saline with Tween-80): 3 of 6

CC(C)(C)C1CC(C(F)(F)F)(C(F)(F)F)OP(=O)(Cl)O1 (centres undefined)
T/C [4]: 105 % of control
T/C [1]: 97 % of control
T/C [5]: 102 % of control
T/C [2]: 94 % of control
survivor count [6]: 4 of 6
T/C [3]: 97 % of control

CCOC(=O)C1(c2ccccc2)CCNCC1
T/C (dose: 100.0 mg/kg/injection, schedule: Q01DX001 (ip), vehicle: saline): 103 % of control
survivor count (dose: 200.0 mg/kg/injection, schedule: Q01DX001 (ip), vehicle: saline): 0 of 6
survivor count (dose: 400.0 mg/kg/injection, schedule: Q01DX001 (ip), vehicle: saline): 0 of 6

CC(=N\N=C(/N)N[N+](=O)[O-])/C(C)=N/N=C(\N)N[N+](=O)[O-]
T/C (dose: 62.5 mg/kg/injection, schedule: Q04DX003 (ip), vehicle: Klucel (hydroxypropylcellulose) (HPC)): 92 % of control
T/C (dose: 125.0 mg/kg/injection, schedule: Q04DX003 (ip), vehicle: Klucel (hydroxypropylcellulose) (HPC)): 86 % of control
T/C (dose: 250.0 mg/kg/injection, schedule: Q04DX003 (ip), vehicle: Klucel (hydroxypropylcellulose) (HPC)): 91 % of control

ClC1CSC1
T/C (dose: 50.0 mg/kg/injection, schedule: Q01DX001 (ip), vehicle: carboxymethylcellulose (CMC)): 102 % of control
T/C (dose: 100.0 mg/kg/injection, schedule: Q01DX001 (ip), vehicle: carboxymethylcellulose (CMC)): 96 % of control
T/C (dose: 200.0 mg/kg/injection, schedule: Q01DX001 (ip), vehicle: carboxymethylcellulose (CMC)): 96 % of control
T/C (dose: 400.0 mg/kg/injection, schedule: Q01DX001 (ip), vehicle: carboxymethylcellulose (CMC)): 96 % of control

CCN(CC)CCOC(=O)C(O)(c1ccccc1)c1cccc(C)c1C (centres undefined)
T/C (dose: 9.38 mg/kg/injection, schedule: Q01DX001 (ip), vehicle: other): 94 % of control
T/C (dose: 18.75 mg/kg/injection, schedule: Q01DX001 (ip), vehicle: other): 100 % of control
T/C (dose: 37.5 mg/kg/injection, schedule: Q01DX001 (ip), vehicle: other): 104 % of control

CCN(CC(C)O)C(CC(C)C)CC(C)C (centres undefined)
T/C (dose: 75.0 mg/kg/injection, schedule: Q01DX001 (ip), vehicle: other): 98 % of control
T/C (dose: 150.0 mg/kg/injection, schedule: Q01DX001 (ip), vehicle: other): 102 % of control
T/C (dose: 300.0 mg/kg/injection, schedule: Q01DX001 (ip), vehicle: other): 101 % of control

Cc1cc(N(CCCl)CCCl)ccc1C1OCCO1.[C-]#[O+].[C-]#[O+].[C-]#[O+].[Cr]
T/C [4]: 94 % of control
T/C [5]: 100 % of control
T/C [6]: 92 % of control

From PubChem BioAssay AID248 (DTP/NCI, 2004)
